The target of one assay is T1, GST tagged 14-3-3γ (UniProt P61981).
T1 sequence: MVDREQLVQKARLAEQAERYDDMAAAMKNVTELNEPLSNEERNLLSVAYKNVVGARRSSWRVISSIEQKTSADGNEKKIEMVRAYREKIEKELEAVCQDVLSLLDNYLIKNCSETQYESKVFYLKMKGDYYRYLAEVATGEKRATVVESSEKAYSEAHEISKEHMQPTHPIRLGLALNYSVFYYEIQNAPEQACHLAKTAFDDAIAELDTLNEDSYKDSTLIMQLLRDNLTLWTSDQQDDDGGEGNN
Put plainly: pull-down.

The chains behind the UniProt entries cited, without tags or fusion partners. Where a name states a change or a piece, a line headed by the entry shows the natural chain unless it says otherwise.
UniProt P06748, whole entry: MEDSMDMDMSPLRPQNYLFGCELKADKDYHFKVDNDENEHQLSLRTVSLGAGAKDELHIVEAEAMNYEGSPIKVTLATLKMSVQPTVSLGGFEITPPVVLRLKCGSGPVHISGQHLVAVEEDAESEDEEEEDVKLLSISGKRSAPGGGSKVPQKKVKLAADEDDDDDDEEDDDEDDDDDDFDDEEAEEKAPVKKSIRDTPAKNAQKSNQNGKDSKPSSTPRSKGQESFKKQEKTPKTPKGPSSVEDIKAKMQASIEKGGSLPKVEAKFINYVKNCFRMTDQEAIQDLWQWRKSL

The target in assay [1] is T2, HA-epitope tagged 14-3-3γ D129A (UniProt P61981).
T2 sequence: T1 sequence with D129A
The assay is described as follows: co-IP.

The target in assay [2] is T3, HA-epitope tagged 14-3-3γ E136A (UniProt P61981).
T3 sequence: T1 sequence with E136A
The assay is described as follows: co-IP.

Substitutions are numbered along the chain they refer to. These are yes or no findings as the source states them, for the method shown. In cells and extracts the contact can be indirect. Some results given as binding are weak or reduced against the parent protein; the word gives no strength. Sequences can lack the tags named with a protein.

Take “CFP tagged NPM1 S218A (from UniProt P06748 1-294)”: the binding entry with GST tagged 14-3-3γ was “binds”.

On to “CFP tagged NPM1 S48E (from UniProt P06748 1-294)”, for which the binding result in the assay with GST tagged 14-3-3γ is recorded as “binds”.

In the case of “Nucleophosmin (NPM1), endogenous (from UniProt P06748 1-294)”, the results for the binding result in assay [1] and in assay [2] were “binds” and “no binding”, respectively.

Take “CFP tagged NPM1 S48A (from UniProt P06748 1-294)”: the binding entry with GST tagged 14-3-3γ is “no binding”.

For the substance “CFP tagged NPM1 S293A (from UniProt P06748 1-294)”, the binding result in the assay with GST tagged 14-3-3γ is listed as “binds”.

The values are drawn from paper doi:10.1101/2019.12.19.883264.
